## Library screen at single concentrations

Sequences of proteins named here, by UniProt entry; tags and fusion partners are left off.
UniProt I6X8D2, whole entry: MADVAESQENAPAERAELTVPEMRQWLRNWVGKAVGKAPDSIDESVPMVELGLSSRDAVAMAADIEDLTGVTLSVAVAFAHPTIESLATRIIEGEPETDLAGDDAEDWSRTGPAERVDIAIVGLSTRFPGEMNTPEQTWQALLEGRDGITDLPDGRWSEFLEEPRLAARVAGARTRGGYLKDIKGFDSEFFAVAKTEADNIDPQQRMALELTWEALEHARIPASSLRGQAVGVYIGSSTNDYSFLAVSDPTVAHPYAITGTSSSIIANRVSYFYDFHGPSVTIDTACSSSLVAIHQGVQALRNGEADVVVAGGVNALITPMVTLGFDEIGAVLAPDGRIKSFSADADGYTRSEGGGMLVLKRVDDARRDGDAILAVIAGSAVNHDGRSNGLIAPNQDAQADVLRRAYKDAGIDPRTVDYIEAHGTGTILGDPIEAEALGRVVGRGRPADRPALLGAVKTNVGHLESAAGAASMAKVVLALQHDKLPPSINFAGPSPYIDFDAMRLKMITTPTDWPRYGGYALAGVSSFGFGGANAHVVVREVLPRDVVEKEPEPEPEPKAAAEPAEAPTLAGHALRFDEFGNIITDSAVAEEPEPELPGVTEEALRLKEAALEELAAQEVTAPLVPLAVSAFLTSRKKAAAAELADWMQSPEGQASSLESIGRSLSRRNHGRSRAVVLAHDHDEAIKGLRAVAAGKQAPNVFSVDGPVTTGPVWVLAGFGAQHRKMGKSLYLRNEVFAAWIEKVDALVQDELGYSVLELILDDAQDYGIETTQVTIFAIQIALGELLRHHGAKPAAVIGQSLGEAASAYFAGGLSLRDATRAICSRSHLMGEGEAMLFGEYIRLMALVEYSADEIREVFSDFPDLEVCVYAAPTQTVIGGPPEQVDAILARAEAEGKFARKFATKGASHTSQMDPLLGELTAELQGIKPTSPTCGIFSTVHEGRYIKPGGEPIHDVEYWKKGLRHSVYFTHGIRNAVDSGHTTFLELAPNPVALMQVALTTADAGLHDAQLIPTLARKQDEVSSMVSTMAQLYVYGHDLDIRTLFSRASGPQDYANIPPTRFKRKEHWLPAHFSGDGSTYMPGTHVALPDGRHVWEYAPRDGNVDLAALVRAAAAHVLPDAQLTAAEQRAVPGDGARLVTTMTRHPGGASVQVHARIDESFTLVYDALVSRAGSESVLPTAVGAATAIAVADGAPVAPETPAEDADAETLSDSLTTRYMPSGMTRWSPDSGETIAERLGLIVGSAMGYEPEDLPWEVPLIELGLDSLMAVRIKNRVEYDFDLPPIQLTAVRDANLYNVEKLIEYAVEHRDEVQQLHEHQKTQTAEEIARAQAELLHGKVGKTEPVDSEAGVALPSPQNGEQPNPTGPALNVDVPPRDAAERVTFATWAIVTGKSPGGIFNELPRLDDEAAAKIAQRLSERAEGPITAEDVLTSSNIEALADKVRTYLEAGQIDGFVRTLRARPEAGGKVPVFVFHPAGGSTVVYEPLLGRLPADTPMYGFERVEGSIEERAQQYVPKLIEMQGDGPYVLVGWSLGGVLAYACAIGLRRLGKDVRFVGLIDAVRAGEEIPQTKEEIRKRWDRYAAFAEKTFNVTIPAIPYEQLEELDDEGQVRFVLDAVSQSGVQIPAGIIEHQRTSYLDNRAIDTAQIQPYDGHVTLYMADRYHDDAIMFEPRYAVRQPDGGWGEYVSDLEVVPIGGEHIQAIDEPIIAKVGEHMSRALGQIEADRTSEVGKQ

The values are deposited in ChEMBL (CHEMBL3988442, “University of Dundee, Small-Polar-MMV Screening Library” (2021)).

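Polyketide synthase Pks13, Mycobacterium tuberculosis (UniProt I6X8D2). Enzyme assay of the thioesterase domain of polyketide synthase 13; the read-out is not stated. Concentration: 30 µM. Higher reads as stronger inhibition (inferred from which compounds were picked for retests). Of about 67,000 compounds tested this way, about 300 (0.46%) reached 50% or more in at least one test.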

The filed quantity is “Percent Effect” (%).
How 0% and 100% were set is not recorded. Most values in the screen are low, and negative values occur.
Compounds were drawn at random from those tested, without regard to their results.

- CC(C)(C)n1ncc2c1NC(=O)CC2c1c(F)cccc1F (stereo unspecified) | -31.19%
- Cn1ccc(NC2CCN(C3CC3)C2=O)n1 (stereo unspecified) | 27.3%
- c1ccc2c(c1)CC(CNCc1ccncc1)(N1CCCCC1)C2 | -24.62%
- Cn1cc(NC(=O)c2cccc(Cl)c2)c(=O)n(C)c1=O | 22.07%
- CSc1ccsc1C(=O)NCCNC(=O)C1CC1 | -0.5041%
- Cn1cnc(S(=O)(=O)N2CCCC2c2cnccn2)c1 (stereo unspecified) | 0.1895%
- c1cncc(CN2CCO[C@H]3[C@H](OCCN4CCCC4)CC[C@@H]32)c1 | -3.957%
- COCC(C)N(C)C(=O)c1ccc2nncn2c1 (stereo unspecified) | -4.215%
- CS(=O)(=O)N1C[C@@H]2CC[C@H](C1)N(CCC(=O)NCc1ccccc1F)C2 | -21.35%
- Cc1cc(N2CCCC2c2nnc3n2CCCCC3)nc(N)n1 (stereo unspecified) | -6.231%
- Cc1nn(C)c(C)c1C(=O)NCc1ccnc(OCC(F)(F)F)c1 | -10.98%
- Cc1nc(-c2cc(C(=O)NCCN3CCOCC3)c3ccccn23)cs1 | 4.414%
- CCOCC1CN(C(=O)C2=CCCC2)Cc2cnn(C)c21 (stereo unspecified) | -15.96%
- Cc1n[nH]c(C)c1Sc1ccccc1NC(=O)N1CCN(C)CC1 | -3.835%
- CC(C)CCN1C[C@H]2C[C@H](C(=O)Nc3cccnc3)[C@@H](C1)O2 | -0.0507%
- O=C(CC1CCCCC1)NC1CCCCNC1=O (stereo unspecified) | 0.4004%
- Cc1ccc2c(c1)OC(C)(C)CC2NC(=O)C1CCN(S(C)(=O)=O)CC1 (stereo unspecified) | -13.75%
- CCOCCNC(=O)c1cnc(Sc2nccn2C)c(Cl)c1 | -22%
- Cc1nc(-c2c(-c3ccccc3)ncn2[C@H]2C[C@@H](C(=O)O)N(C)C2)co1 | -31.41%
- CCn1cc(-c2n[nH]c(=O)n2-c2ccc3c(c2)OCO3)c(C)n1 | -6.14%
- CCOCc1ncn2c1CN(C(=O)Nc1cccc(C)c1)CC2 | -7.955%
- CC(=O)N1CCC2(CCN(C(=O)c3ccc(F)c(C(F)(F)F)c3)C2)C1 (stereo unspecified) | -7.661%
- COCCN1CC2(CCOCC2)c2cc(NC(=O)C3CC=CC3)ccc21 | 13.36%
- COc1ccc(CNC(=O)N(C)CC(C)(C)O)cc1OC | 13.32%
- CS(=O)(=O)c1ccc(C(=O)N2CCCC(n3cccn3)C2)cc1 (stereo unspecified) | -21.91%
- Cc1cnn(CCNC(C)C(=O)NCCc2cccs2)c1 (stereo unspecified) | 16.11%
- COc1ccnc(N2CCN(C(=O)Cc3ccc(C#N)cc3)CC2)n1 | -24.92%
- CC(C)(C(=O)NCc1ccc(C#N)cc1)n1cc(Br)cn1 | -17.21%
- CCS(=O)(=O)NCC(=O)N(C1CC1)C1Cc2ccccc2C1 | -3.286%
- COc1cccc(OC)c1-c1ccnc2cc(CC(=O)N(C)C)nn12 | 2.951%
- Cc1ccc(CN2CCOC3(COCCN(S(C)(=O)=O)C3)C2)o1 (stereo unspecified) | -28.65%
- CC(Nc1nc2c(cnn2C)c(=O)[nH]1)c1ccc2c(c1)CCCC2 (stereo unspecified) | -40.35%
- c1coc(-c2noc(CN3CCc4cncnc4C3)n2)c1 | 10.29%
- c1cc(CN2C[C@@H]3COC[C@]3(COCC3CC3)C2)ccn1 | -19.04%
- COc1ccccc1CNc1ncnc2c1NC(=O)CN2 | 28.18%
- Cc1ccc(OCCC(=O)NC2CC(=O)N(C)C2)cc1C (stereo unspecified) | -8.755%
- CC1=N[C@@]2(CC[C@@H]3CN(S(=O)(=O)C4CC4)C[C@@H]32)C(=O)N1CC(C)C | -51.14%
- COc1coc(CN2CCCC(CCc3c(F)cccc3F)C2)cc1=O (stereo unspecified) | -22.59%
- CC(C)N1CCOCC2(CCCN(C(=O)CCc3cccnc3)C2)C1 (stereo unspecified) | -8.697%
- CN1CC[C@]2(CN(C(=O)c3ccc[nH]3)C[C@H]2c2ccccc2)C1=O | -45.25%
- Cc1nc(C(C)(C)C)sc1C(=O)NCCn1ccnc1 | -33.34%
- COC(=O)CN(Cc1ccccc1C)C(=O)CCNC(=O)C(C)(C)C | -8.695%
- Cc1cnn(CC2CCCCN2C(=O)c2ccc3[nH]c(=O)[nH]c3c2)c1 (stereo unspecified) | -1.213%
- O=C(c1ccccn1)N1CCC(c2nccn2Cc2ccncc2)CC1 | -18.11%
- CC(C)CS(=O)(=O)N1C[C@H]2C[C@H](C(=O)Nc3cccnc3)[C@@H](C1)O2 | -0.6789%
- Cc1nc(C(=O)N2CCN(S(=O)(=O)N(C)C)CC2)c(-c2ccccc2)s1 | -3.683%
- CNc1cc(-c2ccc(COCCN)cc2)c2cc[nH]c2n1 | 4.156%
- Cc1nc(CN2C(=O)CCC23CCN(Cc2cccn2C)CC3)cs1 | 3.419%
- O=C1CN(C(=O)CC2c3ccccc3CCc3ccccc32)CCN1 | 0.4995%
- c1cncc(CN2CCCC3(COCCN(c4cncnc4)C3)C2)c1 (stereo unspecified) | -9.773%
- CCc1nnc2n1CCN(CC(O)CN1CCC(C)CC1)C2 (stereo unspecified) | 0.1088%
- Cc1nc(C)n(C2CCCN(C(=O)c3sccc3C3CC3)C2)n1 (stereo unspecified) | -27.28%
- CN1CCC(N(CCc2ccccc2)C(=O)c2ccc(CO)cc2)CC1 | -6.773%
- CC(C)(C)CC(=O)NS(=O)(=O)c1ccc(F)cc1C(F)(F)F | -35.85%
- COC(=O)c1cccc2nc([C@H]3CCN(Cc4ccccc4F)C3)oc12 | -27.44%
- Cc1nc(CC(=O)N2CCCC[C@H](N(C)C)C2)cs1 | -9.642%
- COc1ccc(C(=O)N2CCCS2(=O)=O)cc1 | -8.144%
- CCc1c(C)nc2cc(C3CCN(Cc4ccncc4C)C3)nn2c1O (stereo unspecified) | -11.15%

5 of the entries, repeated:

structure	Percent Effect
COc1ccccc1CNc1ncnc2c1NC(=O)CN2	28.18
Cc1nc(CC(=O)N2CCCC[C@H](N(C)C)C2)cs1	-9.642
Cc1n[nH]c(C)c1Sc1ccccc1NC(=O)N1CCN(C)CC1	-3.835
Cc1ccc(OCCC(=O)NC2CC(=O)N(C)C2)cc1C (stereo unspecified)	-8.755
COCC(C)N(C)C(=O)c1ccc2nncn2c1 (stereo unspecified)	-4.215